Earlier results as cited in patent US5874471A, “Orthomolecular medical use of L-citrulline for vasoprotection, relaxative smooth muscle tone and cell protection” (priority 1997, dated 1999).
The name of at least one read-out is uncertain.

Conditions: fasting healthy adults; plasma 84±22 μM; cited from earlier work

N=C(N)NCCC[C@H](N)C(=O)O [L-arginine]
free arginine in cerebrospinal fluid relative to plasma concentration: about 23%
